Results reported in PubChem BioAssay AID504834 (National Center for Advancing Translational Sciences (NCATS), 2011).
Among all 320,000 compounds or so, about 22,000 (6.9%) were called active. The inconclusive results got no clear call from the source; some entries with a clear call stand among them for comparison. Calls come from the whole dose curve; as a rule, active = well fitted inhibition curve with a large enough effect; inconclusive = small, poorly fitted or top-dose-only effect, or another doubt; inactive = no such curve, though single readings can be large or run the other way. Potencies beside an inconclusive call are fits to weak or partial responses and may not hold up.

Experiment: Primary qHTS for delayed death inhibitors of the malarial parasite plastid, 96 hour incubation
Conditions: P. falciparum luciferase reporter growth; series mostly up to 28.7 µM
In short: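 P. falciparum expressing integrated firefly luciferase, in erythrocytes at 2% hematocrit, 0.05% parasitemia, incubated with compounds 96 h at 37 C, 5% CO2. Growth inhibition read as loss of luminescence; two-generation exposure targets delayed-death apicoplast inhibitors.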
Potency is the fitted concentration of half-maximal effect.

Q: Which Potency does the source give for `COc1cc(NC(=S)N2CCN(C(=O)C3CCCO3)CC2)c(OC)cc1Cl` (stereo not given) here?
A: inconclusive: 16.5 µM [inhibitor, single point]

Q: For `CCOc1ccc(C(=O)NC2CCN(C(=O)Nc3ccc(F)cc3)CC2)cc1`, which Potency is on record?
A: inconclusive: 13.1 µM [inhibitor, single point]

Q: Which Potency does the source give for `O=[N+]([O-])c1nn(-c2ccc3c(c2)OCCO3)n(O)c1=Nc1ccc(Cl)cc1` here?
A: inconclusive: 18.5 µM [inhibitor, single point]

Q: Which Potency does the source give for `O=C(CN1CCCc2ccccc21)NCc1ccc2c(c1)OCO2` here?
A: inconclusive: 20.8 µM [inhibitor, single point]

Q: With `CC(C)(C)OC(=O)CNC(=O)c1nc[nH]c1C(=O)N1CCNCC1` as the compound, how does the Potency read?
A: inactive

Q: With `O=S(=O)(NC(=NC1CCCCC1)c1ccccc1)c1ccc(F)cc1` as the compound, how does the Potency read?
A: active: 9.28 µM

Q: For `C=CCn1c(C)cc(C(=O)CN2C(=O)c3ccccc3C2=O)c1C`, which Potency is on record?
A: inconclusive: 0.0928 µM [inhibitor, full curve, poor fit]

Q: For `Cc1ccc(C(=O)O)cc1NC(=S)NC(=O)c1ccc(-c2ccccc2)cc1`, which Potency is on record?
A: inactive

Q: For `Cc1sc2ncnc(NCCCn3ccnc3)c2c1C`, which Potency is on record?
A: inconclusive: 13.1 µM [inhibitor, partial curve, poor fit]

Q: Which Potency does the source give for `CCN(CC)CCNC(=O)C(=O)Nc1cc2c3c(c1)CCC(=O)N3CCC2` here?
A: inactive

Q: Which Potency does the source give for `CCN(CC)c1ccc(C(=O)OCc2cc(=O)oc3cc(O)ccc23)cc1` here?
A: active: 4.65 µM

Q: Which Potency does the source give for `COc1cc(/C=C/C(=O)OCC(=O)N2CCCC2)ccc1OCC#N` here?
A: inconclusive: 11.7 µM [inhibitor, partial curve, poor fit]

Q: With `Cc1cc(Oc2ccc(C(F)(F)F)cc2[N+](=O)[O-])c2c3c(c(=O)oc2c1)CCC3` as the compound, how does the Potency read?
A: inconclusive: 0.262 µM [inhibitor, partial curve, poor fit]

Q: For `S=c1[nH]nc(CSc2nc3ccccc3s2)n1C1CCCCC1`, which Potency is on record?
A: inconclusive: 0.0033 µM [inhibitor, full curve, poor fit]

Q: With `C=CCOC(=O)COc1cc(C)cc2oc(=O)c3c(c12)CCC3` as the compound, how does the Potency read?
A: inactive

Q: Which Potency does the source give for `Cc1ccccc1OC1CCN(C(=O)C2CCC(=O)N(C3CCCC3)C2)CC1` (stereo not given) here?
A: inactive

Q: With `CC1(C)CC1C(=O)N/C(=C/CCCCSCC(N)C(=O)O)C(=O)O` (stereo not given) as the compound, how does the Potency read?
A: inactive

Q: With `Cc1ccc(C)c(N2N=C(C(=O)Nc3cccc(S(=O)(=O)N4CCCCC4)c3)CCC2=O)c1` as the compound, how does the Potency read?
A: active: 4.65 µM

Q: Which Potency does the source give for `Cc1cc(C)n(CCN(C)C(=O)CCc2nnc(-c3ccc4c(c3)OCO4)o2)n1` here?
A: inactive

Q: With `CCOc1ccc(C(=O)OCCCN(C)C)cc1` as the compound, how does the Potency read?
A: inconclusive: 13.1 µM [inhibitor, single point]

Q: With `CCOc1ccc(C(=O)Nc2ncn[nH]2)cc1` as the compound, how does the Potency read?
A: active: 2.08 µM

Q: For `O=C(Cn1cnnn1)NC1CCCN(Cc2ccccc2F)C1` (stereo not given), which Potency is on record?
A: active: 5.22 µM

Q: With `Cc1ccc(NC(=O)[C@@H]2CCCN2S(=O)(=O)c2ccccc2F)cc1S(=O)(=O)N1CCOCC1` as the compound, how does the Potency read?
A: inconclusive: 11.7 µM [inhibitor, single point]

Q: With `CCC1NC(=O)C(NC(=O)c2ncccc2O)C(C)OC(=O)C(c2ccccc2)NC(=O)C2CC(=O)CCN2C(=O)C(Cc2ccccc2)N(C)C(=O)C2CCCN2C1=O` (stereo not given) as the compound, how does the Potency read?
A: inconclusive: 12 µM [inhibitor, partial curve]

Q: For `Cc1cccc(N2C(=O)CC(N3CCOCC3)C2=O)c1` (stereo not given), which Potency is on record?
A: inactive

Q: For `COc1ccc(C(C)(C)C)cc1NC(=O)c1[nH]c(C)c(C(C)=O)c1C`, which Potency is on record?
A: inconclusive: 11.7 µM [inhibitor, partial curve]

Q: With `COc1ccc(-c2[nH]ncc2CNCCc2ncccc2C)cc1F` as the compound, how does the Potency read?
A: inconclusive: 10.4 µM [inhibitor, single point]

Q: For `CCN1CCN(C(=O)c2ccc(CSc3ccc(C)cc3)cc2)CC1`, which Potency is on record?
A: inactive

Q: Which Potency does the source give for `Cc1ccc(O)c(C(=O)c2cc(C(=O)NCCC(C)C)c(=O)n(CCC(C)C)c2)c1` here?
A: active: 3.29 µM

Q: With `CN(C)/C=N/c1cc(=O)n(C)c(=O)n1Cc1ccccc1` as the compound, how does the Potency read?
A: inconclusive: 9.28 µM [inhibitor, partial curve, poor fit]

Q: With `CC(C(=O)N(C)Cc1ccccc1)N1CCN(C/C=C/c2ccccc2)CC1` (stereo not given) as the compound, how does the Potency read?
A: inactive

Q: Which Potency does the source give for `COc1ccc(N2CCN(C(=O)c3cc4c(s3)-c3ccccc3S(=O)(=O)C4)CC2)cc1` here?
A: inconclusive: 16.5 µM [inhibitor, partial curve, poor fit]

Q: Which Potency does the source give for `CC(C)N(Cc1nc(-c2ccccc2)no1)S(=O)(=O)c1ccccc1` here?
A: inconclusive: 18.5 µM [inhibitor, single point]

Q: For `COc1ccc2nc(C)cc(SCC(=O)N/N=C/c3ccc(O)cc3O)c2c1`, which Potency is on record?
A: inactive

Q: Which Potency does the source give for `COc1cc(/C=C2\CCCc3c2nc2ccccc2c3C(=O)O)cc(Cl)c1O` here?
A: inactive

Q: Which Potency does the source give for `O=C(C[n+]1cc(-c2ccc(Cl)cc2)n2c1CCCCC2)c1ccccc1` here?
A: inconclusive: 1.47 µM [inhibitor, full curve, poor fit]

Q: For `CCCCN(Cc1ccccc1)C(=O)C1CCN(S(=O)(=O)c2c(C)noc2C)CC1`, which Potency is on record?
A: inconclusive: 9.28 µM [inhibitor, partial curve, poor fit]

Q: With `COc1cc(OC)c(OC)cc1CN1CCN(Cc2ccco2)CC1` as the compound, how does the Potency read?
A: inconclusive: 1.65 µM [inhibitor, partial curve, poor fit]

Q: Which Potency does the source give for `Cc1ccc2oc(C(=O)N3CCN(C)C[C@@H]3C(C)C)c(C)c2c1` here?
A: inconclusive: 18.5 µM [inhibitor, single point]

Q: With `COc1cccc(N(C(=O)Cn2nnc(-c3ccc(Cl)cc3)n2)C(C(=O)NCC2CCCO2)c2ccc(C)cc2)c1` (stereo not given) as the compound, how does the Potency read?
A: inconclusive: 5.86 µM [inhibitor, partial curve]

Q: For `CC(C)C(NS(=O)(=O)c1cccs1)C(=O)NCc1ccc2c(c1)OCO2` (stereo not given), which Potency is on record?
A: inactive

Q: For `O=S(=O)(c1ccc(Cl)cc1)N1CCN=C1SCc1cccnc1`, which Potency is on record?
A: inactive

Q: With `CN(C)c1nc(N2CCOCC2)nc(N(c2ccccc2)c2ccccc2)n1` as the compound, how does the Potency read?
A: inconclusive: 14.7 µM [inhibitor, partial curve, poor fit]

Q: With `Cc1ccc(S(=O)(=O)N2CCN(Cc3cccc(C)c3O)CC2)cc1` as the compound, how does the Potency read?
A: inconclusive: 1.04 µM [inhibitor, partial curve]

Q: With `COc1ccc2c(c1)C(SCC(=O)NCCc1ccc(Cl)cc1)CC(C)(C)O2` (stereo not given) as the compound, how does the Potency read?
A: inconclusive: 18.5 µM [inhibitor, single point]

Q: Which Potency does the source give for `COc1ccc(CNc2ccc(-c3ccc(OC)cc3)nn2)cc1` here?
A: inconclusive: 1.04 µM [inhibitor, single point]

Q: Which Potency does the source give for `CCOP(=O)(OCC)c1cccc(O)c1` here?
A: inactive

Q: With `COC(=O)c1c(NC(=O)CSc2ncnc3c2cnn3-c2ccccc2Cl)sc2c1CCCC2` as the compound, how does the Potency read?
A: inconclusive: 18.5 µM [inhibitor, single point]

Q: For `CNC(=O)c1c(O)c2cccc3c2n(c1=O)CCC3`, which Potency is on record?
A: inactive

Q: Which Potency does the source give for `Cc1nn(CC(=O)NCCCN2CCCC2)c(=O)c2nn(-c3ccccc3)c(C)c12` here?
A: inconclusive: 18.5 µM [inhibitor, single point]

Q: Which Potency does the source give for `CCN(CC)CCNC(C(=O)Nc1ccc([N+](=O)[O-])cc1Br)c1ccccc1` (stereo not given) here?
A: inconclusive: 18.5 µM [inhibitor, single point]

Q: With `Cc1cc(-c2cc(C(=O)NC3CCCC3)on2)nc(NC2CCCC2)n1` as the compound, how does the Potency read?
A: inconclusive: 10.4 µM [inhibitor, single point]

Q: With `C=CCOc1ccccc1CN1CCC(n2nccc2NC(=O)C2CC2)CC1` as the compound, how does the Potency read?
A: inactive

Q: For `CC1CCCCC1NC(=O)C(=O)NCC1CCCO1` (stereo not given), which Potency is on record?
A: inconclusive: 11.7 µM [inhibitor, partial curve, poor fit]

Q: With `NC(=O)c1ccsc1NC(=O)COC(=O)Cc1cccc2ccccc12` as the compound, how does the Potency read?
A: inactive

Q: With `Nn1c(COc2cccc(Br)c2)nnc1SCC(=O)NCC1CCCO1` (stereo not given) as the compound, how does the Potency read?
A: inactive

Q: For `CCC1C(=O)N=C(SCC(=O)Nc2ccc(S(N)(=O)=O)cc2)NC1=O` (stereo not given), which Potency is on record?
A: inconclusive: 7.38 µM [inhibitor, single point]

Q: Which Potency does the source give for `COc1ccc(-c2cc(C(=O)N3CCN(c4ncccn4)CC3)c3ccccc3n2)cc1OC` here?
A: inactive

Q: Which Potency does the source give for `Cn1nc(C(F)(F)F)c(-c2cccc(C(F)(F)F)c2)c1NC(=O)CSCC(=O)O` here?
A: inconclusive: 11.7 µM [inhibitor, single point]

Q: With `O=C(NCCc1ccccc1)C(=O)c1cn(CC(=O)N2CCCC2)c2ccccc12` as the compound, how does the Potency read?
A: inactive

Q: Which Potency does the source give for `COc1ccc(C(=O)C2CCCN(C(=O)c3cc(C)nc(C)n3)C2)cc1OC` (stereo not given) here?
A: inactive

Q: Which Potency does the source give for `COc1ccc(-c2csc(-n3ncc(-c4cccs4)c3N)n2)cc1` here?
A: inconclusive: 0.165 µM [inhibitor, full curve, poor fit]

Q: For `CCOC(=O)N1CCC(Nc2c(Nc3cccc(CC)c3)c(=O)c2=O)CC1`, which Potency is on record?
A: inconclusive: 0.0029 µM [inhibitor, full curve, poor fit]

Q: For `CCOCC(=O)N1CCN(c2ccccc2OC)CC1`, which Potency is on record?
A: inactive

Q: Which Potency does the source give for `COc1ccc2cc(C(=O)N3CCCCCC3)sc(=O)c2c1OC` here?
A: inconclusive: 14.7 µM [inhibitor, single point]

Q: Which Potency does the source give for `O=C(NCC(O)c1ccccc1)c1ccc(Cl)c(S(=O)(=O)N2CCCC2)c1` (stereo not given) here?
A: inconclusive: 2.94 µM [inhibitor, full curve]

Q: Which Potency does the source give for `COc1ccc(N2CCN(c3ccc(NC(=O)C4CCCCC4)cc3C#N)CC2)cc1` here?
A: inconclusive: 0.0738 µM [inhibitor, full curve, poor fit]

Q: For `CC(=O)[C@]1(O)Cc2c(O)c3c(c(O)c2[C@@H](O[C@H]2C[C@H](N)[C@H](O)[C@H](C)O2)C1)C(=O)c1c(O)cccc1C3=O`, which Potency is on record?
A: active: 1.51 µM

Q: For `CSc1nnc(CCCCCCCCc2nnc(SC)o2)o1`, which Potency is on record?
A: active: 13.1 µM

Q: Which Potency does the source give for `COc1cc(OC)c(OC)cc1CNCCc1ccc2c(c1)OCO2` here?
A: inconclusive: 18.5 µM [inhibitor, single point]
